The record followed here is article PMC8668186, “Molecular architecture of the human tRNA ligase complex” (eLife, 2021).

By UniProt entry, the sequences of proteins in these tests, tags left out. Where a name states a change or a piece, a line headed by the entry shows the natural chain unless it says otherwise.
UniProt Q9Y3I0: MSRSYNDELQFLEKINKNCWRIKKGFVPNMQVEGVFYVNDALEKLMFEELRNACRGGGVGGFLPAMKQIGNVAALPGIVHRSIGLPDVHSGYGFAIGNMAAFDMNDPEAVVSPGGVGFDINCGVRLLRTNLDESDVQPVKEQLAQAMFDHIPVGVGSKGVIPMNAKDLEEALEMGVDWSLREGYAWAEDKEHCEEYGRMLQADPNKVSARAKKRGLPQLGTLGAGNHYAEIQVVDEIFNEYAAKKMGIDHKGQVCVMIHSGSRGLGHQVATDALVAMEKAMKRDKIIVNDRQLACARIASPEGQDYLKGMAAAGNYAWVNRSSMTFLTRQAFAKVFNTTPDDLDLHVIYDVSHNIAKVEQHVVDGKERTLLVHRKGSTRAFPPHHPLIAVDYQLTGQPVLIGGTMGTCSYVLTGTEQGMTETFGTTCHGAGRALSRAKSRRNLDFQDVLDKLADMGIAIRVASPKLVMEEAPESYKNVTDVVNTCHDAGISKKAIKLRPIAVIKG
UniProt Q92499: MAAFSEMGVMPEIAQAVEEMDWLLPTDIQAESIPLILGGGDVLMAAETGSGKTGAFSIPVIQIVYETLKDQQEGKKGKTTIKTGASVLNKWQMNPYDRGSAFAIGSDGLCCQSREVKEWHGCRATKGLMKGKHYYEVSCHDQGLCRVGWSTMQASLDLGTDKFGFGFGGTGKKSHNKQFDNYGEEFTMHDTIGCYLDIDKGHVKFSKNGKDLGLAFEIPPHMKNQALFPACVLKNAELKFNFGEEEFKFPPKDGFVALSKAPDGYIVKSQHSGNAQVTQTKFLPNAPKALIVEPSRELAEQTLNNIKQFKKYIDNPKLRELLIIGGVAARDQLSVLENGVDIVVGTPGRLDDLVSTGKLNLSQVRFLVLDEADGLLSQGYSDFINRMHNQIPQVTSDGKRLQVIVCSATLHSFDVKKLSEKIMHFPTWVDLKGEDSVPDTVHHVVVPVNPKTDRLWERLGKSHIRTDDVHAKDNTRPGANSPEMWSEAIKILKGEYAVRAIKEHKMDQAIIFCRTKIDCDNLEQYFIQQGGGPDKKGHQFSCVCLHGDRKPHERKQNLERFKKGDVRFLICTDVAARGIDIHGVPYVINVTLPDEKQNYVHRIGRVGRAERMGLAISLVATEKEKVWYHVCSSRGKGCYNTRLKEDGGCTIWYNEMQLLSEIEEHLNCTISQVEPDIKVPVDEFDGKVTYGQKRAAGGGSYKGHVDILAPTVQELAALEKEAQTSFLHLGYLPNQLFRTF
UniProt Q52LJ0: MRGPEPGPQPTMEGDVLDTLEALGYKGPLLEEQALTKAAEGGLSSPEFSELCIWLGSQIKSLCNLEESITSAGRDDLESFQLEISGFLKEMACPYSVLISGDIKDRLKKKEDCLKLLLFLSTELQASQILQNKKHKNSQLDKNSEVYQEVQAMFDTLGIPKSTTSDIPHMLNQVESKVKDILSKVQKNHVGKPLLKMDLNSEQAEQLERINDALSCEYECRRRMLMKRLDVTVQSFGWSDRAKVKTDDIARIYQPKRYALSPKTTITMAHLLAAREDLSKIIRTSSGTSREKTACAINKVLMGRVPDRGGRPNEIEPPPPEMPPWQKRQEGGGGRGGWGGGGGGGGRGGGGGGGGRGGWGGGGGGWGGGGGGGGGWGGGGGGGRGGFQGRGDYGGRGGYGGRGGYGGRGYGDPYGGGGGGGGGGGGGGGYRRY
UniProt Q9Y224: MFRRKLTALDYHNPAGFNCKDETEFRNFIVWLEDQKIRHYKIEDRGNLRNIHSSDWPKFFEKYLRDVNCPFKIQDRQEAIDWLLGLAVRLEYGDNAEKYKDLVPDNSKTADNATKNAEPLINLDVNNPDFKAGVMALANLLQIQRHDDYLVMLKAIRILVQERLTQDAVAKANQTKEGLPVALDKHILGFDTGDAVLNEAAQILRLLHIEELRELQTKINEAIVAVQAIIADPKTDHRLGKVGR

No constants are given. Whether binding was seen depends on the method and setting.

This assay addresses core tRNA-LC (RTCB:DDX1:FAM98B:CGI-99) (human) (UniProt Q9Y3I0+Q92499+Q52LJ0+Q9Y224). The experiment in a line: SEC; 2.5 nmol tRNA-LC (RTCB, DDX1, FAM98B, CGI-99) mixed with 5 nmol Archease, 30 min on ice; Superdex 200 10/300 in 20 mM HEPES pH 8.0, 250 mM KCl, 1 mM DTT; peak fractions on SDS-PAGE; both purified. On the technique in general: In gel filtration, larger molecules generally elute earlier.

B1: Archease (domain or fragment, UniProt Q8IWT0 27-167)
chain: VNRKYEYLDHTADVQLHAWGDTLEEAFEQCAMAMFGYMTDTGTVEPLQTVEVETQGDDLQSLLFHFLDEWLYKFSADEFFIPREVKVLSIDQRNFKLRSIGWGEEFSLSKHPQGTEVKAITYSAMQVYNEENPEVFVIIDI
As to B1, the binding entry is “no binding (tested: 2.5 nmol of tRNA-LC with 5 nmol Archease)”.
